{"source": "patent US20070196865A1", "about": "(priority 2003, published 2007)", "key": {"[1]": {"test_system": "α1bAR, β2AR, AT1AR, DOR, and V2R", "assay": "Multiplex Receptor Assay With Five GPCRs (pooled cell lines, arrestin-GFP Fgrains)", "assay_type": "cell-based, human", "details": "pool of five U2OS cell lines expressing α1bAR", "method": "(§1) The assays were carried out using various “double stable” human osteosarcoma cell (U2OS) lines. Each cell line stably expressed an arrestin-GFP conjugate of the Renilla reniformis green fluorescent protein fused in frame to the carboxyl terminus of rat β-arrestin2 as well as one of the following GPCRs: α1b adrenergic receptor (α1bAR), beta2-AR […], delta opioid (DOR) receptor, angiotensin1A receptor (AT1AR), or V2 vasopressin receptor (V2R).\n(§2) Cells were plated 16-24 hours prior to the experiment at approximately 6,000 cells per well. Cells were removed from the flasks with trypsin and suspended in growth media for plating at a density of 100,000 cells per ml.\n(§3) One of two methods were used to multiplex the cell lines. In one method, each cell line was dispensed independently such that the final cell number was approximately 6,000 cells per well. The dispense volume was adjusted depending on the number of cell lines used. […]\n(§4) Plates were imaged for response determination on an In Cell Analyzer 3000, Gen. […] Pit or vesicle responses were quantitated using the Granularity Module of the Raven Software. That is, the In Cell Analyzer 3000 was used to quantitate the localization of the arrestin-GFP conjugate for the cells in each well. […] The average of the fluorescent intensity of the identified grains per cell in an acquired image (i.e., Fgrains) was determined for each well on the plates. […]"}, "[2]": {"test_system": "α1bAR, β2AR, AT1AR, and DOR", "details": "pool of four U2OS cell lines expressing α1bAR", "method": "as §1, §2, §3, §4"}}}
{"smiles": "NC[C@H](O)c1ccc(O)c(O)c1", "note": "[NE, norepinephrine]", "values": [{"measurement": "slope of the concentration-response curve", "setting": "[1]", "result": 2.2}, {"measurement": "slope of the concentration-response curve", "setting": "[2]", "result": 1.2}]}
